± gives the standard deviation of the averaged measurements. The effect of the compound repeats well; differences between the knockouts mostly do not.
Tested on: SKBR3
Test: relative cell number vs DMSO control (72 h) (% of DMSO); higher = less growth inhibition (more cells)
Experimental: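 QMAP-Seq: a pool of 5 breast cancer cell lines (ZR-75-1, SKBR3, HCC-38, MDA-MB-231, BT-20), each carrying 12 doxycycline-inducible Cas9 sgRNA perturbations (11 knockouts plus non-targeting sgNT), was treated with compounds for 72 h at four 10-fold doses (10 nM-10 uM or 1 nM-1 uM range). Barcodes were amplified and sequenced, and cell number was interpolated from 293T spike-in standard curves. The result is expressed as % of the median of DMSO wells. Two biological replicates.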

Nc1ncn([C@H]2C[C@H](O)[C@@H](CO)O2)c(=O)n1 [Decitabine]
Details | relative cell number
sgRNA knockout: sgATF3, 10 nM | 132 ± 13
sgRNA knockout: sgATF3, 100 nM | 103 ± 5.8
sgRNA knockout: sgATF3, 1000 nM | 56 ± 3.4
sgRNA knockout: sgATF3, 10000 nM | 34.4 ± 11
sgRNA knockout: sgATF4, 10 nM | 95 ± 1.6
sgRNA knockout: sgATF4, 100 nM | 100 ± 14
sgRNA knockout: sgATF4, 1000 nM | 65.5 ± 6.3
sgRNA knockout: sgATF4, 10000 nM | 34.9 ± 4
sgRNA knockout: sgATF6, 10 nM | 108.7 ± 0.74
sgRNA knockout: sgATF6, 100 nM | 88.2 ± 5.2
sgRNA knockout: sgATF6, 1000 nM | 57.4 ± 4.4
sgRNA knockout: sgATF6, 10000 nM | 36 ± 2.7
sgRNA knockout: sgATG7, 10 nM | 86.6 ± 27
sgRNA knockout: sgATG7, 100 nM | 93.5 ± 38
sgRNA knockout: sgATG7, 1000 nM | 53.9 ± 7.9
sgRNA knockout: sgATG7, 10000 nM | 33.2 ± 6.7
sgRNA knockout: sgERN1, 10 nM | 83 ± 24
sgRNA knockout: sgERN1, 100 nM | 99.2 ± 12
sgRNA knockout: sgERN1, 1000 nM | 66.6 ± 5.1
sgRNA knockout: sgERN1, 10000 nM | 37.6 ± 9.4
sgRNA knockout: sgHSF1, 10 nM | 116 ± 42
sgRNA knockout: sgHSF1, 100 nM | 91.4 ± 16
sgRNA knockout: sgHSF1, 1000 nM | 53.6 ± 15
sgRNA knockout: sgHSF1, 10000 nM | 37.9 ± 13
sgRNA knockout: sgHSF2, 10 nM | 72.5 ± 7.8
sgRNA knockout: sgHSF2, 100 nM | 76.2 ± 8.8
sgRNA knockout: sgHSF2, 1000 nM | 58.9 ± 5.2
sgRNA knockout: sgHSF2, 10000 nM | 35.1 ± 1.2
sgRNA knockout: sgKEAP1, 10 nM | 94.4 ± 12
sgRNA knockout: sgKEAP1, 100 nM | 94.3 ± 22
sgRNA knockout: sgKEAP1, 1000 nM | 52.1 ± 9.8
sgRNA knockout: sgKEAP1, 10000 nM | 36 ± 7.9
sgRNA knockout: sgNFE2L2, 10 nM | 99.7 ± 3.2
sgRNA knockout: sgNFE2L2, 100 nM | 90.4 ± 21
sgRNA knockout: sgNFE2L2, 1000 nM | 48.5 ± 6
sgRNA knockout: sgNFE2L2, 10000 nM | 42.1 ± 2.5
sgRNA knockout: sgSLC35F2, 10 nM | 102 ± 4.7
sgRNA knockout: sgSLC35F2, 100 nM | 86.3 ± 0.97
sgRNA knockout: sgSLC35F2, 1000 nM | 56 ± 7.4
sgRNA knockout: sgSLC35F2, 10000 nM | 35.6 ± 14
sgRNA knockout: sgXBP1, 10 nM | 101 ± 14
sgRNA knockout: sgXBP1, 100 nM | 95.6 ± 2.6
sgRNA knockout: sgXBP1, 1000 nM | 51.3 ± 8.6
sgRNA knockout: sgXBP1, 10000 nM | 29 ± 5.7

COc1cccc2c1C(=O)c1c(O)c3c(c(O)c1C2=O)C[C@@](O)(C(=O)CO)C[C@@H]3O[C@H]1C[C@H](N)[C@H](O)[C@H](C)O1 [Doxorubicin]
Details | relative cell number
sgRNA knockout: sgATF3, 10 nM | 83.9 ± 13
sgRNA knockout: sgATF3, 100 nM | 33.1 ± 15
sgRNA knockout: sgATF3, 1000 nM | 12 ± 4.3
sgRNA knockout: sgATF3, 10000 nM | 8.04 ± 2.7
sgRNA knockout: sgATF4, 10 nM | 84.8 ± 3.3
sgRNA knockout: sgATF4, 100 nM | 34.5 ± 7.4
sgRNA knockout: sgATF4, 1000 nM | 17.1 ± 2
sgRNA knockout: sgATF4, 10000 nM | 7.08 ± 0.34
sgRNA knockout: sgATF6, 10 nM | 86.2 ± 2.4
sgRNA knockout: sgATF6, 100 nM | 42.1 ± 3.6
sgRNA knockout: sgATF6, 1000 nM | 10.9 ± 5.8
sgRNA knockout: sgATF6, 10000 nM | 7.04 ± 0.87
sgRNA knockout: sgATG7, 10 nM | 78.6 ± 3.2
sgRNA knockout: sgATG7, 100 nM | 42.8 ± 10
sgRNA knockout: sgATG7, 1000 nM | 10.7 ± 2.3
sgRNA knockout: sgATG7, 10000 nM | 10.4 ± 1.6
sgRNA knockout: sgERN1, 10 nM | 78.2 ± 2.7
sgRNA knockout: sgERN1, 100 nM | 41.9 ± 2.1
sgRNA knockout: sgERN1, 1000 nM | 15.6 ± 7.8
sgRNA knockout: sgERN1, 10000 nM | 7.02 ± 5
sgRNA knockout: sgHSF1, 10 nM | 88.8 ± 21
sgRNA knockout: sgHSF1, 100 nM | 34.5 ± 5.9
sgRNA knockout: sgHSF1, 1000 nM | 13.8 ± 5
sgRNA knockout: sgHSF1, 10000 nM | 5.37 ± 3.2
sgRNA knockout: sgHSF2, 10 nM | 104 ± 23
sgRNA knockout: sgHSF2, 100 nM | 40.6 ± 12
sgRNA knockout: sgHSF2, 1000 nM | 20.9 ± 9
sgRNA knockout: sgHSF2, 10000 nM | 9.64 ± 1.9
sgRNA knockout: sgKEAP1, 10 nM | 89 ± 10
sgRNA knockout: sgKEAP1, 100 nM | 31.6 ± 2.8
sgRNA knockout: sgKEAP1, 1000 nM | 9.39 ± 2.3
sgRNA knockout: sgKEAP1, 10000 nM | 6.93 ± 2.8
sgRNA knockout: sgNFE2L2, 10 nM | 86.5 ± 0.62
sgRNA knockout: sgNFE2L2, 100 nM | 33.3 ± 1.4
sgRNA knockout: sgNFE2L2, 1000 nM | 14.3 ± 5.8
sgRNA knockout: sgNFE2L2, 10000 nM | 8.37 ± 1.2
sgRNA knockout: sgSLC35F2, 10 nM | 80.2 ± 22
sgRNA knockout: sgSLC35F2, 100 nM | 32.3 ± 1.2
sgRNA knockout: sgSLC35F2, 1000 nM | 10.3 ± 4.6
sgRNA knockout: sgSLC35F2, 10000 nM | 10.2 ± 7.2
sgRNA knockout: sgXBP1, 10 nM | 82.8 ± 7.1
sgRNA knockout: sgXBP1, 100 nM | 45.9 ± 1.4
sgRNA knockout: sgXBP1, 1000 nM | 11.9 ± 1.6
sgRNA knockout: sgXBP1, 10000 nM | 8 ± 1.3

Nc1ccccc1NC(=O)c1ccc(CNC(=O)OCc2cccnc2)cc1 [Entinostat]
Details | relative cell number
sgRNA knockout: sgATF3, 10 nM | 108 ± 35
sgRNA knockout: sgATF3, 100 nM | 118.4 ± 0.71
sgRNA knockout: sgATF3, 1000 nM | 23.4 ± 4.2
sgRNA knockout: sgATF3, 10000 nM | 7.01 ± 4.7
sgRNA knockout: sgATF4, 10 nM | 94.5 ± 13
sgRNA knockout: sgATF4, 100 nM | 102 ± 5.1
sgRNA knockout: sgATF4, 1000 nM | 31.5 ± 5.2
sgRNA knockout: sgATF4, 10000 nM | 5.82 ± 5.2
sgRNA knockout: sgATF6, 10 nM | 103 ± 5.2
sgRNA knockout: sgATF6, 100 nM | 98.77 ± 0.65
sgRNA knockout: sgATF6, 1000 nM | 23.2 ± 4
sgRNA knockout: sgATF6, 10000 nM | 6.37 ± 2.1
sgRNA knockout: sgATG7, 10 nM | 85.4 ± 54
sgRNA knockout: sgATG7, 100 nM | 85.8 ± 32
sgRNA knockout: sgATG7, 1000 nM | 26.2 ± 5.4
sgRNA knockout: sgATG7, 10000 nM | 7.71 ± 5
sgRNA knockout: sgERN1, 10 nM | 87.4 ± 1.3
sgRNA knockout: sgERN1, 100 nM | 107 ± 17
sgRNA knockout: sgERN1, 1000 nM | 26.9 ± 5.5
sgRNA knockout: sgERN1, 10000 nM | 5.27 ± 4.1
sgRNA knockout: sgHSF1, 10 nM | 107 ± 24
sgRNA knockout: sgHSF1, 100 nM | 76.7 ± 10
sgRNA knockout: sgHSF1, 1000 nM | 24.6 ± 5.7
sgRNA knockout: sgHSF1, 10000 nM | 6.67 ± 3.7
sgRNA knockout: sgHSF2, 10 nM | 96.4 ± 3.6
sgRNA knockout: sgHSF2, 100 nM | 82.5 ± 7.1
sgRNA knockout: sgHSF2, 1000 nM | 23.7 ± 0.4
sgRNA knockout: sgHSF2, 10000 nM | 6.85 ± 6.4
sgRNA knockout: sgKEAP1, 10 nM | 119 ± 2
sgRNA knockout: sgKEAP1, 100 nM | 90.5 ± 11
sgRNA knockout: sgKEAP1, 1000 nM | 29.6 ± 5
sgRNA knockout: sgKEAP1, 10000 nM | 7.08 ± 4
sgRNA knockout: sgNFE2L2, 10 nM | 94.7 ± 1.4
sgRNA knockout: sgNFE2L2, 100 nM | 107 ± 32
sgRNA knockout: sgNFE2L2, 1000 nM | 26.7 ± 4.1
sgRNA knockout: sgNFE2L2, 10000 nM | 8.28 ± 3.6
sgRNA knockout: sgSLC35F2, 10 nM | 98.6 ± 56
sgRNA knockout: sgSLC35F2, 100 nM | 122 ± 31
sgRNA knockout: sgSLC35F2, 1000 nM | 29.8 ± 3.6
sgRNA knockout: sgSLC35F2, 10000 nM | 5.83 ± 6
sgRNA knockout: sgXBP1, 10 nM | 111 ± 21
sgRNA knockout: sgXBP1, 100 nM | 118 ± 20
sgRNA knockout: sgXBP1, 1000 nM | 28.7 ± 10
sgRNA knockout: sgXBP1, 10000 nM | 6.19 ± 5.5

Reference: the supplement of paper PMC7661543
